Test results published in publication PMC11406190.
These are yes or no findings as the source states them, for the method shown. In cells and extracts the contact can be indirect. Here binding means that the protein was enriched with, or labelled near, the bait; the list need not be complete.

By UniProt entry, the sequences of proteins in these tests, tags left out.
UniProt Q14587: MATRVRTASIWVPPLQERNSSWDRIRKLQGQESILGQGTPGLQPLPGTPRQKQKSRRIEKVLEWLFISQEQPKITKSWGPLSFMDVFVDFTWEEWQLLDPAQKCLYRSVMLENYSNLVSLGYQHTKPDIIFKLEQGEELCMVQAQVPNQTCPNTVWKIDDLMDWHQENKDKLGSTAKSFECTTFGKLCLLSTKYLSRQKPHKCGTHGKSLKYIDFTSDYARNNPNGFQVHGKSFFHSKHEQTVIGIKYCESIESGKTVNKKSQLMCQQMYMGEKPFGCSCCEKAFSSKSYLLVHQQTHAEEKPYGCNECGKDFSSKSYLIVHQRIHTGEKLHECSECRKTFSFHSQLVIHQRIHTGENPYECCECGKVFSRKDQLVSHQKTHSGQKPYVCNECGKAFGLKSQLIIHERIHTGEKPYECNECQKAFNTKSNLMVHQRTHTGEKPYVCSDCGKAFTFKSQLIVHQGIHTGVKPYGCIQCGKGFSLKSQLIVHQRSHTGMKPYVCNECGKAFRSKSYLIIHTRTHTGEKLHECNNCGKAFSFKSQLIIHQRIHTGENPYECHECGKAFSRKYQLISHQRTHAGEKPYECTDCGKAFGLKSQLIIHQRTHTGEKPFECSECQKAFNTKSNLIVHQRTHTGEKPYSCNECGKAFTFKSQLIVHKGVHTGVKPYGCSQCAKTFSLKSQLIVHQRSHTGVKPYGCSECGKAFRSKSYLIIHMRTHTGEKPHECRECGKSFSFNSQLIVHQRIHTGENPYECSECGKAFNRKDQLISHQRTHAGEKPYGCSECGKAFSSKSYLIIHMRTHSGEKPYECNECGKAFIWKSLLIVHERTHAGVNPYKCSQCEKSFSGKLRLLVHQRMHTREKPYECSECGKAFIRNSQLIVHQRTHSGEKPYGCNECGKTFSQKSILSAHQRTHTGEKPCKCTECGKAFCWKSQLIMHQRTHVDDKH

Molecular target: Flag-tagged ZNF268a (human) (UniProt Q14587)
Experiment: affinity purification with mass spectrom

B1: SETD4 (endogenous, found by mass spectrometry) (enzyme, UniProt Q9NVD3 1-440)
chain: MQKGKGRTSRIRRRKLCGSSESRGVNESHKSEFIELRKWLKARKFQDSNLAPACFPGTGRGLMSQTSLQEGQMIISLPESCLLTTDTVIRSYLGAYITKWKPPPSPLLALCTFLVSEKHAGHRSLWKPYLEILPKAYTCPVCLEPEVVNLLPKSLKAKAEEQRAHVQEFFASSRDFFSSLQPLFAEAVDSIFSYSALLWAWCTVNTRAVYLRPRQRECLSAEPDTCALAPYLDLLNHSPHVQVKAAFNEETHSYEIRTTSRWRKHEEVFICYGPHDNQRLFLEYGFVSVHNPHACVYVSREILVKYLPSTDKQMDKKISILKDHGYIENLTFGWDGPSWRLLTALKLLCLEAEKFTCWKKVLLGEVISDTNEKTSLDIAQKICYYFIEETNAVLQKVSHMKDEKEALINQLTLVESLWTEELKILRASAETLHSLQTAFT
- binding: binds
